Results are given in words; binding and its absence hold for the method and conditions named. A result given as binding can be weak or reduced; the word gives no strength.
Key:
monkey CD40 (monkey) [1] = test: direct ELISA (summary of Example 2)
monkey CD40 (monkey) [2] = test: direct ELISA, CD40 coated at 1 µg/ml, APX005 at 1 µg/ml
monkey CD40 (monkey) [3] = test: direct ELISA according to paragraph 284 (1 ug/ml monkey CD40 coated, 1 ug/ml antibody, goat anti-human IgG-HRP); y axis of the sheet reads MFI
monkey CD40 (monkey) [4] = test: direct ELISA (legend of FIGS. 11A and 11B)

binding (monkey CD40 (monkey) [1]): binds
binding (monkey CD40 (monkey) [2]): binds
binding (monkey CD40 (monkey) [3]): binds
binding (monkey CD40 (monkey) [4]): binds
B1: APX005, humanized version of the R-8 rabbit anti-CD40 antibody (antibody, IgG1, V domains shown)
VH: QVQLVESGGGVVQPGRSLRLSCAASGFSFSSTYVCWVRQAPGKGLEWIACIYTGDGTNYSASWAKGRFTISKDSSKNTVYLQMNSLRAEDTAVYFCARPDITYGFAINFWGPGTLVTVSS
VL: DIQMTQSPSSLSASVGDRVTIKCQASQSISSRLAWYQQKPGKPPKLLIYRASTLASGVPSRFSGSGSGTDFTLTISSLQPEDVATYYCQCTGYGISWPIGGGTKVEIK
